Laboratory results: PMC4494967
Substitutions are numbered along the chain they refer to. Results are given in words; binding and its absence hold for the method and conditions named. In cells and extracts the contact can be indirect. Some results given as binding are weak or reduced against the parent protein; the word gives no strength. For some assays here: Sequences can lack the tags named with a protein. One block for each molecule: values may come before it.

By UniProt entry, the sequences of proteins in these tests, tags left out.
UniProt Q93009: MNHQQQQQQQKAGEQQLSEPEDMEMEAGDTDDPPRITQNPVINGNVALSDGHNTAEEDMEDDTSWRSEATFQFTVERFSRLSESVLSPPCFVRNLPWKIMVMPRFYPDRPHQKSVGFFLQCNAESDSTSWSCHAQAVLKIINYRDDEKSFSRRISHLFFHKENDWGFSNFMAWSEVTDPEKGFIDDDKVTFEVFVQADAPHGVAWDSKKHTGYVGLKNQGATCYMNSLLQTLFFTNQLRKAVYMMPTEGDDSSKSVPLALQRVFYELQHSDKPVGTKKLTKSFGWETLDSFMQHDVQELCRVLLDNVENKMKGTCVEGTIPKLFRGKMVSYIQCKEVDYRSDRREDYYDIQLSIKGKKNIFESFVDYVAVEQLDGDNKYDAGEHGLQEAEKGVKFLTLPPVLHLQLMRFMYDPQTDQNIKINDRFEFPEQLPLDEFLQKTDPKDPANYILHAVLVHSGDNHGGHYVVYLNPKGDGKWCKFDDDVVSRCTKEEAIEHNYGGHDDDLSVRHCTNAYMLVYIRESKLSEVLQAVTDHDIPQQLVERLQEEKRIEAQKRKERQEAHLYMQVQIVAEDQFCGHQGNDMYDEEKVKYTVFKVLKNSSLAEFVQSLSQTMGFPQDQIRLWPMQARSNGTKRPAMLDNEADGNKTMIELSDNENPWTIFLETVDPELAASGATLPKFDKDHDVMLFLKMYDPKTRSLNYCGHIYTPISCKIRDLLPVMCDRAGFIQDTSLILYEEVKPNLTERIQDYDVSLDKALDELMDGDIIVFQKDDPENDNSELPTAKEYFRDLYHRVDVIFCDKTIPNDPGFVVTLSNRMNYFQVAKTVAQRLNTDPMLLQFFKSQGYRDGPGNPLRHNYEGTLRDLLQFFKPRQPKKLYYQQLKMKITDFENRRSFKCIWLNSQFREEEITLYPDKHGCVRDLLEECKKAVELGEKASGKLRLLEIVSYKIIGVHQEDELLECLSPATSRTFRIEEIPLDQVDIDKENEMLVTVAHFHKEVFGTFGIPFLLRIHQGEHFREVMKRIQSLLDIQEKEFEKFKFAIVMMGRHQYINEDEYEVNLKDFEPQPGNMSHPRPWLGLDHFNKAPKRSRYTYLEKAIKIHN
UniProt Q969H0: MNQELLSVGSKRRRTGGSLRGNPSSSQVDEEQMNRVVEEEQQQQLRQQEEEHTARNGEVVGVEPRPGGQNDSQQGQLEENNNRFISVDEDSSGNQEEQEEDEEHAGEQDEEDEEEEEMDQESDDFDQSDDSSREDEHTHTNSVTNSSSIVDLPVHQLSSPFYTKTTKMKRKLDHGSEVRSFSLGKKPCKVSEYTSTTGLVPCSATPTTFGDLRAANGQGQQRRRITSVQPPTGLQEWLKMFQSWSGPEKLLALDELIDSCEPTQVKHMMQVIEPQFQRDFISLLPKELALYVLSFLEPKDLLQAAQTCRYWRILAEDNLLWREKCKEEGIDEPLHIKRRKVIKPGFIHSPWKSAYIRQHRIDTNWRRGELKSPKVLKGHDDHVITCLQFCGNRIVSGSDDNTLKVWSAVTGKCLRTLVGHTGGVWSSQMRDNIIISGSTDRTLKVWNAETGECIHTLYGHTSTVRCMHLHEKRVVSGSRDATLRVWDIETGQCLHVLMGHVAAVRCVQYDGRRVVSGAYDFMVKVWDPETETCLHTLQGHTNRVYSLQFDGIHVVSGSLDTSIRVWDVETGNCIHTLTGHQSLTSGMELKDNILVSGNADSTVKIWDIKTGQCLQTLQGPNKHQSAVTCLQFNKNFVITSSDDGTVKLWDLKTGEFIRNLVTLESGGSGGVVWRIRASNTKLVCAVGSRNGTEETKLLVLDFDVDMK
UniProt P14635: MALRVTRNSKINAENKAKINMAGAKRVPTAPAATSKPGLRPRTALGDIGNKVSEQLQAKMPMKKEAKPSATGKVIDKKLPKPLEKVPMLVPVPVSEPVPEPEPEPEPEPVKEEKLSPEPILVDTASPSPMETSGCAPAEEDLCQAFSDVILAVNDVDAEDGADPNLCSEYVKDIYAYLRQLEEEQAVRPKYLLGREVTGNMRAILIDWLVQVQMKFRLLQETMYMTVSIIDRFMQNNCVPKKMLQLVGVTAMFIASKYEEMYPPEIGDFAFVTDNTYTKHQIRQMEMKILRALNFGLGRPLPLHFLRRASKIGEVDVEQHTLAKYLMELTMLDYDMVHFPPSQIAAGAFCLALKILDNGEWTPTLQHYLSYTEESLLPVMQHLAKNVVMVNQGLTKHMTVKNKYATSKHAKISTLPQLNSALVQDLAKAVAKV

How the values were obtained:
[1] = target: T1, endogenous CCDC6 (293T) (human (endogenous in 293T)) (UniProt Q16204); assay: co-IP; endogenous CCDC6 and USP7 from parental 293T cells; immunocomplexes analysed by western blot
T1 sequence: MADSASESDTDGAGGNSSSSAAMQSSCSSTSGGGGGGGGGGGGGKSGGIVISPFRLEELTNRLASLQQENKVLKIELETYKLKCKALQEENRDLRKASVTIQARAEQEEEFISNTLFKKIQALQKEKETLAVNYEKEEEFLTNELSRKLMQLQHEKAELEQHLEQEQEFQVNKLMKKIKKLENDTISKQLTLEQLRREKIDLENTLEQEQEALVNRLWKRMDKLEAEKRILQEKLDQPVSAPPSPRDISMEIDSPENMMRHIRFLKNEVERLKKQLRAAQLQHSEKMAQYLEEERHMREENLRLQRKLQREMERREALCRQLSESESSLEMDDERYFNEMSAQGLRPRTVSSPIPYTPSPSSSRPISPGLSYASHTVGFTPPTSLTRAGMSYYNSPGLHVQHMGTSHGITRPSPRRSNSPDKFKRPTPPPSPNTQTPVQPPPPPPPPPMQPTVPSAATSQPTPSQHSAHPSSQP

myc-CCDC6 wild type [2] = target: T2, myc-CCDC6 wild type (UniProt Q16204); assay: co-IP; 293T cells transfected with myc-CCDC6 constructs (wt, 1-223, TM); IP anti-myc from whole cell lysates, western blot for USP7
T2 sequence: T1 sequence

[3] = target: T3, myc-tagged CCDC6 truncated mutant (1-223) (UniProt Q16204); assay: as above
T3 sequence: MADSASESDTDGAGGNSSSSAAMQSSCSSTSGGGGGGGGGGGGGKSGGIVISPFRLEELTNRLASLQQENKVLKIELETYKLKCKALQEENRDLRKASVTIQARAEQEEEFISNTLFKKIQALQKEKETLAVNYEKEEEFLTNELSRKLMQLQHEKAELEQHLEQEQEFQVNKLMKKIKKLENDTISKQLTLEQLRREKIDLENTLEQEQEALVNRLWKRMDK

[4] = target: T4, myc-CCDC6 triple mutant SST359/413/427AAA (UniProt Q16204); assay: as above
T4 sequence: T1 sequence with S359A, S413A, T427A

myc-CCDC6 wild type [5] = target: T2, myc-CCDC6 wild type; assay: co-IP; 293T cells co-transfected with myc-CCDC6 WT or TM and HA-FBXW7, in presence of MG132 (25 uM); IP anti-myc, immunoblot anti-HA
[6] = target: T4, myc-CCDC6 triple mutant SST359/413/427AAA; assay: as above
S-tag-GFP-CCDC6 = target: T5, S-tag-GFP-CCDC6 (UniProt Q16204); assay: pull-down; S-protein (S-tag) pull-down of S-tag-GFP-CCDC6 from asynchronous or mitotic (nocodazole) HeLa Kyoto extracts; immunoblot with anti-cyclin B, anti-GSK3, anti-CCDC6
T5 sequence: T1 sequence

binding [1]: binds
binding (myc-CCDC6 wild type [2]): binds
binding [3]: binds
binding [4]: binds
Molecule: USP7 (from UniProt Q93009 1-1102) (enzyme)

binding (myc-CCDC6 wild type [5]): binds
binding [6]: binds
Molecule: HA-FBXW7 (from UniProt Q969H0 1-707)

binding (S-tag-GFP-CCDC6): binds
Molecule: cyclin B1 (from UniProt P14635 1-433)

binding (S-tag-GFP-CCDC6): binds
B1: endogenous CCDC6 (HeLa Kyoto) (protein, UniProt Q16204 1-474)
chain: T1 sequence
